# Test results: PubChem BioAssay AID1347075 (National Center for Advancing Translational Sciences (NCATS), 2019)
# About 5,500 (1.4%) of roughly 400,000 compounds were called active. This list was built around the results that the source calls inconclusive (neither active nor inactive); the mix of calls is not that of the screen. The call rests on the fitted dose curve; in most records, active means well fitted cell-killing curve with a large enough effect; inconclusive means small, poorly fitted or top-dose-only effect, or effect the other way; inactive means flat fitted curve, though single readings scatter. Potencies beside an inconclusive call are fits to weak or partial responses and may not hold up.
# Assay: qHTS assay for MDR1-selective chemotherapeutics: Primary screen using the parental adenocarcinoma cell KB-3-1; further: nearly all actives have a fitted effect of over 60% in size
# Settings: KB-3-1 viability, CellTiter-Glo ATP luminescence, 72 h; activity change, negative = cytotoxic: at 46.1 µM (top of the series)
# How it was run: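 Cytotoxicity in the drug-sensitive parental line KB-3-1 was scored as loss of CellTiter-Glo luminescence following 72 h incubation with compound. Values come from curve fitting of normalized concentration-response data.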
# On the % scale 0 is the no-effect control and ±100 the full control effect; potency means the concentration at half of the fitted maximal effect.
SMILES,Potency,"activity change, negative = cytotoxic"
CC(=O)c1ccccc1OCc1ccc(C(=O)c2ccccc2)cc1,"inconclusive: 16.4 µM [cytotoxic, partial curve]",–
Cc1cc(C)cc(C(=O)NC(CC(N)=O)c2ccc(NCCN3CCCC3)c([N+](=O)[O-])c2)c1 (stereo not drawn),–,inactive: -14.4%
CCCC(CCC(=O)Nc1ccc(C(=O)OCC)cc1)C(=O)O (stereo not drawn),–,inactive: 4.9%
Cc1ccc2nc(NC(=O)C3CCN(C(=O)c4ccc(F)cc4)CC3)sc2c1,"inconclusive: 25.9 µM [cytotoxic, single point]",–
COc1ccc(C2SCCN2C(=S)Nc2cccc(Cl)c2)cc1 (stereo not drawn),"inconclusive: 29.1 µM [cytotoxic, single point]",–
C[C@@H]1C[C@@H]2O[C@H]2/C=C\C=C\C(=O)Cc2c(Cl)c(O)cc(O)c2C(=O)O1,"inconclusive: 0.231 µM [cytotoxic, full curve, poor fit]",–
COc1ccc(-n2nc3c(c2NC(=O)COc2cccc(OC)c2)CS(=O)(=O)C3)cc1,–,inactive: 16%
CCc1cc(C(=O)NC2CCCN(Cc3ccccc3F)C2)n(C)n1 (stereo not drawn),–,inactive: -75.2%
Cc1nn(C)cc1C(=O)/C=C/c1ccc([N+](=O)[O-])cc1,"inconclusive: 20.6 µM [cytotoxic, single point]",–
Cc1ccccc1Nc1nc(-c2cccnc2)nc2ccccc12,–,inactive: -0.364%
CC1CN(C(=S)Nc2ccccc2)N(c2ccccc2)C1 (stereo not drawn),–,inactive: -4.55%
Nc1c(C(=O)N/N=C/c2ccccc2Cl)oc2nc(-c3ccccc3)cc(-c3ccco3)c12,"inconclusive: 4.61 µM [rising, partial curve]",–
CC1(C)CC(Cc2ccc(C(=O)c3ccccc3)cc2)N(C(=O)OC(C)(C)C)N1 (stereo not drawn),–,inactive: -22.7%
O=C(Nc1ccc(F)cc1)c1sc2cc(C(F)(F)F)cnc2c1-c1cccs1,–,inactive: -16%
O=C(c1ccc(Cl)c([N+](=O)[O-])c1)N1CCN(c2ccccc2)CC1,"inconclusive: 13 µM [cytotoxic, single point]",–
COc1ccc(S(=O)(=O)N2Cc3ccccc3CC2C(=O)Nc2nccs2)cc1OC (stereo not drawn),–,inactive: 9.53%
COc1cc([C@@H]2C[C@H]3CN(c4ccccc4)C(=O)[C@]34CCCN24)cc(OC)c1OC,"inconclusive: 2.31 µM [cytotoxic, partial curve, poor fit]",–
N#Cc1ccccc1CSc1nc2ccc(NC(=O)c3ccccc3C(=O)O)cc2s1,–,inconclusive: -62.7%
O=C(NCCCc1ccccc1)c1c(O)nc2sccn2c1=O,"inconclusive: 29.1 µM [cytotoxic, single point]",–
Cc1ccc(-c2nn(-c3ccccc3)cc2C(=O)NCC2CCCO2)cc1 (stereo not drawn),"inconclusive: 29.1 µM [rising, single point]",–
c1ccc2c(c1)OCCOCCOCCOCCOCCOc1ccccc1OCCOCCOCCO2,active: 5.17 µM,–
Cc1ccc(C)c(CN2C(=O)C(=O)c3ccccc32)c1,–,inactive: -14.5%
CCN1C(=O)C(CC(=O)Nc2ccc(Br)cc2)N(CCCc2ccccc2)C1=S (stereo not drawn),"inconclusive: 29.1 µM [cytotoxic, single point]",–

SMILES,Potency,"activity change, negative = cytotoxic"
O=C1CSC2(C(=O)N(Cc3ccccc3F)c3ccccc32)N1c1ccc(F)cc1 (stereo not drawn),"inconclusive: 29.1 µM [cytotoxic, single point]",–
COCc1cccc(-c2csc(C(C)(O)c3cccc(OC)c3)n2)c1 (stereo not drawn),–,inactive: -11.6%
CC1(c2ccc(Cl)c(Cl)c2)NC(=S)N2C1NC(=S)N2c1ccccc1 (stereo not drawn),"inconclusive: 20.6 µM [cytotoxic, partial curve, poor fit]",–
CCSc1nnc2n(-c3cccc(C)c3)c(=O)c3c4c(sc3n12)CCCC4,"inconclusive: 29.1 µM [cytotoxic, single point]",–
COc1ccc(-c2cc(C(=O)Nc3cccnc3Cl)no2)cc1OC,"inconclusive: 0.82 µM [rising, partial curve, poor fit]",–
Cc1ccc(C)c(S(=O)(=O)c2c[nH]c(=S)[nH]c2=O)c1,"inconclusive: 2.59 µM [rising, partial curve]",–
COc1ccc(C)c2sc(N(CCN(C)C)C(=O)c3ccc4ccccc4c3)nc12,–,inactive: 17.5%
CC[n+]1c(/C=C/c2ccc(N(C)C)cc2)ccc2ccccc21,"inconclusive: 0.731 µM [cytotoxic, full curve, poor fit]",–
CCCN1CCN(CCCNC(=O)CN2C(=O)COc3ccc(C(C)(C)C)cc32)CC1,"inconclusive: 1.84 µM [cytotoxic, full curve]",–
CC(=O)OC1CCC2(C)C(CCC3C4CC=C(C(C)=O)C4(C)OC(=O)CC32)C1 (stereo not drawn),active: 23.1 µM,–
Cc1ccc(C2(c3ccccc3)NC(=O)N(CC(=O)NC3CCCCC3)C2=O)cc1C (stereo not drawn),"inconclusive: 23.1 µM [cytotoxic, single point]",–
C=CCOc1ccc(/C=N/N2C(=O)C(CC(=O)Nc3ccc(F)cc3F)SC2=NC)cc1 (stereo not drawn),"inconclusive: 18.4 µM [cytotoxic, single point]",–
COc1ccc(C2COc3cc(O)ccc3C2)c(OC)c1O (stereo not drawn),"inconclusive: 18.4 µM [cytotoxic, single point]",–
Cc1ccc(C(=O)NCC2CCCN2S(=O)(=O)c2ccc(C)cc2)cc1 (stereo not drawn),–,inactive: -4.89%
CCCc1nc2ccccc2c(=O)n1NC(=O)c1c(O)c2ccccc2n(C)c1=O,active: 14.6 µM,–
COCCn1c(C)cc(C(=O)COC(=O)c2[nH]c(C)c(C(C)=O)c2C)c1C,"inconclusive: 18.4 µM [cytotoxic, single point]",–
Cc1nc2cccnc2n1-c1cccc(C(=O)N2CCN(c3ccc(Cl)cc3)CC2)c1,active: 11.6 µM,–
COc1cc(CN2CCN(c3cccc(C)c3C)CC2)cc(Br)c1O,"inconclusive: 18.4 µM [cytotoxic, single point]",–
CC1(C(=O)NCCC(F)(F)F)Cc2c(-c3cccc(C(F)(F)F)c3)ccnc2O1 (stereo not drawn),"inconclusive: 20.6 µM [cytotoxic, single point]",–
NCc1cccc(CNc2ccc([N+](=O)[O-])cc2C(N)=O)c1,"inconclusive: 29.1 µM [cytotoxic, single point]",–
COC(=O)[C@@]1(Cc2ccc(F)cc2)[C@H]2c3cc(C(=O)N4CCCC4)n(Cc4ccccc4)c3C[C@H]2CN1C(=O)c1ccccc1,"inconclusive: 16.4 µM [cytotoxic, single point]",–
COc1ccc(CN2CCN(C(=O)c3ccc4nc(N5CCOCC5)sc4c3)CC2)c(OC)c1OC,–,inactive: -1.08%
Cc1cc(=O)[nH]c2ccc(O)cc12,–,inactive: 8.13%

SMILES,Potency,"activity change, negative = cytotoxic"
O=S(=O)(c1ccc(Cl)cc1)N1CN(CC2CCCO2)c2nc3ccccc3nc21 (stereo not drawn),–,inactive: 1.4%
Cc1ccc(S(=O)(=O)Nc2cccc(Cl)c2)cc1NC(=O)C1CC1,"inconclusive: 14.6 µM [cytotoxic, partial curve]",–
Cc1cccc2cc(C#N)c(SCC(=O)N3CC(=O)Nc4ccccc43)nc12,active: 0.82 µM,–
O=C(CN1C2=NCCCN2c2ccccc21)c1cccc(Br)c1,"inconclusive: 32.6 µM [cytotoxic, partial curve, poor fit]",–
COc1ccc2cc3cc(C(=O)Nc4ccc5c(c4)OCO5)oc3nc2c1,"inconclusive: 35.5 µM [cytotoxic, single point]",–
O=C(C1CCN(S(=O)(=O)c2cccnc2)CC1)N1CCN(c2cccc(Cl)c2)CC1,"inconclusive: 20.6 µM [cytotoxic, single point]",–
CC(C)(C)c1ccc(SC2=C[C@@]3(O)CC[C@@H](O)[C@@](Sc4ccc(C(C)(C)C)cc4)(C2=O)[C@H]3O)cc1,"inconclusive: 16.4 µM [cytotoxic, partial curve, poor fit]",–
CN(C)Cc1ncccc1Oc1nc2cc(-c3cccc(Cl)c3)sc2c(=O)n1C,–,inactive: 0%
CCOC(=O)c1c(NC(=O)CN2CCCc3ccccc32)sc(C)c1C,"inconclusive: 18.4 µM [cytotoxic, single point]",–
Cc1[nH]c2c(Cl)cccc2c1CCNC(=O)C1CCCCC1C(=O)OCC(F)(F)F (stereo not drawn),–,inactive: -0.543%
Cc1nc(N)nc(N)c1CCCc1ccc(Cl)c(Cl)c1,"inconclusive: 18.4 µM [cytotoxic, single point]",–
COc1ccc(Nc2c(CCc3ccccc3)nc3nc(C)cc(C)n23)cc1,"inconclusive: 32.6 µM [cytotoxic, single point]",–
COc1cc(-c2cc(C(=O)Nc3ccc(S(=O)(=O)Nc4ncccn4)cc3)c3ccccc3n2)cc(OC)c1OC,–,inactive: -1.01%
CC(C)(C)c1ccc(OCC(=O)N2CCC(c3nc4ccccc4s3)CC2)cc1,"inconclusive: 5.8 µM [rising, full curve]",–
COCCNc1nc(Nc2ccc(C)cc2C)c2sccc2n1,active: 5.17 µM,–
Cc1nc(C)c(-c2csc(Nc3ncccc3C)n2)s1,"inconclusive: 29.1 µM [cytotoxic, partial curve, poor fit]",–
CC1(NC(=O)CC(c2ccccc2)(c2ccccc2)c2ccccc2)CCN(Cc2ccc(-c3ccccc3)cc2)C1=O (stereo not drawn),"inconclusive: 20.6 µM [cytotoxic, partial curve]",–
Cc1cc2ccccn2c1C(=O)c1cccc([N+](=O)[O-])c1,"inconclusive: 23.1 µM [cytotoxic, single point]",–
Cc1ccc(S(=O)(=O)N2CCOCC2)cc1NS(=O)(=O)c1ccc(F)c(F)c1,–,inactive: -7.36%
CCOC(=O)c1cccc(NC(=O)/C=C/c2cccc([N+](=O)[O-])c2)c1,–,inactive: 8.18%
CCOC(=O)CSc1nc(=O)n2cccc(C)c2n1,"inconclusive: 29.1 µM [cytotoxic, single point]",–
COc1cc(OC)c(OC)cc1/C=C1\CCC/C(=C\c2cc(OC)c(OC)cc2OC)C1=O,"inconclusive: 29.1 µM [cytotoxic, single point]",–

# Given bar-delimited: entries from further up.
SMILES | Potency | activity change, negative = cytotoxic
Cc1ccc(C)c(S(=O)(=O)c2c[nH]c(=S)[nH]c2=O)c1 | inconclusive: 2.59 µM [rising, partial curve] | –
COc1ccc(C)c2sc(N(CCN(C)C)C(=O)c3ccc4ccccc4c3)nc12 | – | inactive: 17.5%
